Measurements from article PMC9379584 (iScience, 2022).
pIC50: −log10 of the molar value. Like-named read-outs stand apart in the source and are kept apart here.

System: mouse pancreatic islets
Test: Glucose-stimulated insulin secretion
Format: cell-based
Conditions: Pancreatic islet; for pIC50: read-out: IC50, inhibition of GSIS

Question: `CCCN1CCC[C@@H]2Cc3n[nH]cc3C[C@H]21` [Quinpirole, quinpirole] was tested. Which pIC50 (1.5 h) did it give?
Answer: 5.80

Question: And the IC50 (1.5 h, read-out: pIC50, inhibition of GSIS (converted))?
Answer: 1580 nM

Question: What about the pIC50 of the same compound?
Answer: 5.80
